Data published in publication PMC5472792, “Bub1 positions Mad1 close to KNL1 MELT repeats to promote checkpoint signalling” (Nature Communications, 2017).
These are yes or no findings as the source states them, for the method shown. For some of these results: In cells and extracts the contact can be indirect. Some binding calls cover weakened binding; strength is not graded here. Tags and fused reporters may be left off the sequences shown. Blank lines part the entries; values can stand above or below the molecule they belong to.

By UniProt entry, the sequences of proteins in these tests, tags left out.
UniProt O43684: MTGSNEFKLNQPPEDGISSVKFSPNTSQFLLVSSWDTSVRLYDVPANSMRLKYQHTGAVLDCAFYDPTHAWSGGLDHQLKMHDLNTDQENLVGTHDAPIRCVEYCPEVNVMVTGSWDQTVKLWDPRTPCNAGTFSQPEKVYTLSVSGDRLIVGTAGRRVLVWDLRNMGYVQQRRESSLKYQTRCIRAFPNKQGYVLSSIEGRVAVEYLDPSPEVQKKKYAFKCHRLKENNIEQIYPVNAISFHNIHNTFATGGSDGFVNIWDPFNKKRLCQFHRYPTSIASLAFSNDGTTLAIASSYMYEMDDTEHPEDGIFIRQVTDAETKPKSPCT

Assays:
[1] = molecular target: T1, His-Strep-Mad1 597–718 (human) (UniProt Q9Y6D9); assay: pull-down; 8 μg His-Strep-Mad1 597–718 incubated with 1 μg FLAG-Bub1 146–553/Bub3 complexes, 30 mM Tris pH 7.4, 50 mM NaCl, 0.1 mM DTT, 30 min at 30 °C; captured on Strep-Tactin beads, washed with 120 mM NaCl, 0.1% NP-40, eluted with desthiobiotin; blot for FLAG; both purified
T1 sequence: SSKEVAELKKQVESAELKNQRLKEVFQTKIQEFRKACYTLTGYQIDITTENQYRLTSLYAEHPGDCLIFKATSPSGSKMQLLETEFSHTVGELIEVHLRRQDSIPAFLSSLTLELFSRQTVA

[2] = molecular target: T2, FLAG-Bub1 146–553 (human) (UniProt O43683); assay: co-IP; anti-FLAG beads on lysate of HEK293 cells co-transfected with FLAG Bub1 146–553 and untagged Bub3; 350 mM NaCl, 50 mM Tris pH 8.0, 0.05% NP40; eluted with FLAG peptide
T2 sequence: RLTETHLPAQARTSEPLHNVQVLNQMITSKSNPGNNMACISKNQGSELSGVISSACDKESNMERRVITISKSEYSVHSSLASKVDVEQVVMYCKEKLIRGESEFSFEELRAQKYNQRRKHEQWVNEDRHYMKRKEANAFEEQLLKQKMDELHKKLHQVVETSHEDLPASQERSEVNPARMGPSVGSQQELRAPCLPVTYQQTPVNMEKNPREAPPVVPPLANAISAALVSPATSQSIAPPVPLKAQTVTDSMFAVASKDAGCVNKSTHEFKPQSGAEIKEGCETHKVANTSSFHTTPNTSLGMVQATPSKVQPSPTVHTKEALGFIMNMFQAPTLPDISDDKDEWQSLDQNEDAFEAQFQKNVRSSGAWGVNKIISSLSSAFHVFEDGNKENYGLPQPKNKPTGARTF

[3] = molecular target: T3, FLAG-Bub1 146–553 ΔCD1 (human) (UniProt O43683); assay: as above
T3 sequence: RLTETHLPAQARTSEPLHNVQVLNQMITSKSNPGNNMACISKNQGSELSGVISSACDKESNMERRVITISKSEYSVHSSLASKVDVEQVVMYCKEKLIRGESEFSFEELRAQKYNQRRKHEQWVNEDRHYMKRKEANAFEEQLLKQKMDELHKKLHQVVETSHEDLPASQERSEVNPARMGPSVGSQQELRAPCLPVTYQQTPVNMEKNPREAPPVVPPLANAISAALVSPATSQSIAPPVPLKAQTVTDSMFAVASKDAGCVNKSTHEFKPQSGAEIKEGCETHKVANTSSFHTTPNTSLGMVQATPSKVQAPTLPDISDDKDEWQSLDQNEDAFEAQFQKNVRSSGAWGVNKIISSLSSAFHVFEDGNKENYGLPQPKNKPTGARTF

[4] = molecular target: T4, control CD1 peptide with mutations of residues 461–465 to Ala (human) (UniProt O43683); assay: SPR; N-terminally biotinylated Bub1 peptides captured (~50 RU) on a streptavidin-coated CM5 chip, Mad1 proteins injected; Biacore T200, 25 °C; 25 mM Tris pH 7.8, 150 mM NaCl, 10 mM MgCl2, 0.25 M TCEP, 0.005% Surfactant P-20; steady-state affinity model; both purified
T4 sequence (peptide, biotin on the N-terminus; norleucine (Nle) instead of methionine): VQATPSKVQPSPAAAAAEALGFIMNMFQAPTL

binding [1]: no binding
Molecule: FLAG-Bub1 146–553ΔCD1/Bub3 complex (from UniProt O43683 146-553; O43684 1-328)

binding [2]: binds
binding [3]: binds
Molecule: Bub3 (from UniProt O43684 1-328)

binding [4]: no binding (tested: 500 μM)
B1: His-Strep-Mad1 597–718 (domain or fragment, human, UniProt Q9Y6D9 597-718, looked up)
chain: SSKEVAELKKQVESAELKNQRLKEVFQTKIQEFRKACYTLTGYQIDITTENQYRLTSLYAEHPGDCLIFKATSPSGSKMQLLETEFSHTVGELIEVHLRRQDSIPAFLSSLTLELFSRQTVA
notes: composition confirmed by multi-angle light scattering; also called Mad1 C-terminal fragment; source: E. coli BL21(DE3), purified (HiTrap Ni column, Superdex 75)
